{"source": "patent US7384464B2", "about": "“Ink jet and recording material” (Ciba Specialty Chemicals Corporation, priority 2004, dated 2008)", "key": {"[1]": {"assay": "Light fastness of ink jet prints on stabilizer-treated paper, 100% print density, office fluorescent lighting (Example 5)", "details": "650-700 mg/m^2 stabilizer"}, "[2]": {"assay": "Light fastness of ink jet prints on stabilizer-treated paper, 50% print density, office fluorescent lighting (Example 7)", "details": "650-700 mg/m^2 stabilizer"}, "[3]": {"assay": "Light fastness of magenta ink jet prints on stabilizer-treated paper, 100% print density, office fluorescent lighting (Example 6)", "details": "650-700 mg/m^2 stabilizer"}, "[4]": {"assay": "Dark storage of yellow ink jet prints on stabilizer-treated paper (Example 8)", "details": "100% print density; dark storage in a file folder in a desk drawer"}}, "data": [{"molecule": "CC(C)(O)CON1C(C)(C)CC(O)CC1(C)C", "note": "[Instant Example 2, bis(1-(2-hydroxy-2-methylpropoxy)-2,2,6,6-tetramethyl-4-hydroxypiperidinium)citrate]", "values": [{"measurement": "DE for cyan after 4 weeks", "setting": "[1]", "result": 4.43}, {"measurement": "DE for yellow after 4 weeks", "setting": "[1]", "result": 3.77}, {"measurement": "DE for cyan after 4 weeks", "setting": "[2]", "result": 5.32}, {"measurement": "DE for magenta after 4 weeks", "setting": "[2]", "result": 14.04}, {"measurement": "DE for yellow after 4 weeks", "setting": "[2]", "result": 1.73}, {"measurement": "DE for magenta after 4 weeks", "setting": "[3]", "result": 15.60}, {"measurement": "DE for yellow after 4 weeks", "setting": "[4]", "result": 0.12}]}, {"molecule": "1-(2-hydroxy-2-methylpropoxy)-2,2,6,6-tetramethyl-4-hydroxypiperidinium citrate [Instant Example 3]", "values": [{"measurement": "DE for cyan after 4 weeks", "setting": "[2]", "result": 6.03}, {"measurement": "DE for magenta after 4 weeks", "setting": "[2]", "result": 14.10}, {"measurement": "DE for yellow after 4 weeks", "setting": "[2]", "result": 1.97}, {"measurement": "DE for magenta after 4 weeks", "setting": "[3]", "result": 15.36}]}, {"molecule": "CC(C)(O)CON1C(C)(C)CC(O)CC1(C)C", "note": "[Instant Example 4, 1-(2-hydroxy-2-methylpropoxy)-2,2,6,6-tetramethyl-4-hydroxypiperidinium ascorbate]", "values": [{"measurement": "DE for cyan after 4 weeks", "setting": "[2]", "result": 5.43}, {"measurement": "DE for magenta after 4 weeks", "setting": "[2]", "result": 12.89}, {"measurement": "DE for yellow after 4 weeks", "setting": "[2]", "result": 3.18}, {"measurement": "DE for magenta after 4 weeks", "setting": "[3]", "result": 15.62}]}, {"molecule": "1-hydroxy-2,2,6,6-tetramethyl-4-hydroxypiperidinium citrate [Compound A, reference compound]", "values": [{"measurement": "DE for cyan after 4 weeks", "setting": "[1]", "result": 4.85}, {"measurement": "DE for yellow after 4 weeks", "setting": "[1]", "result": 3.80}]}, {"molecule": "CC(C)(O)CON1C(C)(C)CC(O)CC1(C)C", "note": "[Instant Example 1, tris(1-(2-hydroxy-2-methylpropoxy)-2,2,6,6-tetramethyl-4-hydroxypiperidinium)citrate]", "values": [{"measurement": "DE for cyan after 4 weeks", "setting": "[1]", "result": 4.75}, {"measurement": "DE for yellow after 4 weeks", "setting": "[1]", "result": 2.83}, {"measurement": "DE for cyan after 4 weeks", "setting": "[2]", "result": 5.80}, {"measurement": "DE for magenta after 4 weeks", "setting": "[2]", "result": 13.53}, {"measurement": "DE for yellow after 4 weeks", "setting": "[2]", "result": 1.35}, {"measurement": "DE for magenta after 4 weeks", "setting": "[3]", "result": 18.17}, {"measurement": "DE for yellow after 4 weeks", "setting": "[4]", "result": 0.23}]}]}
